Measured values reported in US20230021840A1, “USE OF GP73 INHIBITOR IN PREPARATION OF MEDICINE FOR TREATING DIABETES” (BEIJING SUNGEN BIOMEDICAL TECHNOLOGY CO. LTD., priority 2020, published 2023).
No constants are given. Whether binding was seen depends on the method and setting. In cells and extracts the contact can be indirect. Some results given as binding are weak or reduced against the parent protein; the word gives no strength.

Sequences of proteins named here, by UniProt entry; tags and fusion partners are left off. Residues count along the entry.
UniProt P55095, residues 53-81: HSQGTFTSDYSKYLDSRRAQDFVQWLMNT

Legend:
[1] = target: GCG in mouse serum (mouse) (UniProt P55095); test: co-immunoprecipitation from mouse serum (FIG. 4E)
[2] = target: GCG in mouse serum (mouse) (UniProt P55095); test: co-immunoprecipitation from mouse serum (IP: GP73, IB: Glucagon and IB: GP73), fasting 0-72 h, with input lanes; no control-IgG lane shown
[3] = target: GCG in mouse serum (mouse) (UniProt P55095); test: co-immunoprecipitation from serum of fasted C57BL/6N mice, western blot

Measured: binding

B1: soluble GP73 in mouse serum (protein, UniProt Q91XA2 56-393, looked up)
chain: AAAERGAVELKKNEFQGELQKQREQLDRIQSSHSFQLENVNKLHQDEKAVLVNNITTGEKLIRDLQDQLKALQRSYSSLQQDIFQFQKNQTSLEKKFSYDLNQCISQMTEVKEQCDERIEEVIRKRNEAPGSRDLAETNNQHQQALKPQPKLQEEVPSEEQMPQEKGDVPRNKSQIPAPNSESLGLKPQVQNEETNEIQAVGEEHQQASIQGQAVADGTRVGAEKLDQHTQLPAGLLARPEEDSQYPEREQLVIRDRQEQQRASEEGGGQKNPGDEYDMDENEAESEREKQAALAGNDRNINVLNADAQKRGIINVPVGSERQSHILNQVGIHIPQQA
binds: all assays above
